Measured values as given in PubChem BioAssay AID328 (DTP/NCI, 2004).
The list shows only some results of the screen, not a fair sample: it gathers tests that were run many times, whatever their T/C, doses with no T/C, and many T/C values between a quarter and a half above the control. Other doses and runs of a compound stand elsewhere. T/C is the treated group as % of the vehicle group. Some entries give survivors of the animals treated and no T/C: the source files T/C as zero there, which appears to mark a toxic dose or a test without result, not a measured value. Some survivor counts are full or nearly so, which does not show that the dose was tolerated: the source hardly ever lists a survival T/C far under the control, and the zero likely stands for such cases as well. Survivors were counted at the toxicity check, usually on the fifth day, unless a day is given; later deaths do not show. Schedule codes are those of the source, read here as Q, the interval in days (D) or hours (H), X, the number of doses. For survival time, this PubChem deposit counts one and a half times the control or more as active, and values a quarter to a half above the control carry no call in these data; other NCI protocols may use other cut-offs. Some T/C values carry the count of animals alive at the toxicity check (mostly the fifth day); where none is given, no animal had died by that day. Non-standard residues stand in square brackets, D forms with d. Residues, ends and D or L forms follow the SMILES beside them. ξ: configuration not given here. *: point of attachment. Cbz = O=C(OCc1ccccc1)*; ξK = NCCCCC(N)C(=O)O

System: BDF1 mice, P388 leukemia ip, median survival T/C
Experiment: NCI In Vivo Anticancer Drug Screen. Data for tumor model P388 Leukemia (intraperitoneal) in B6D2F1 (BDF1) mice
Settings: T/C endpoint: median survival time, higher T/C = longer survival
Procedure, shortened: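 Compound-treated tumour-bearing mice were compared with vehicle-treated controls. Survival was recorded, and the value is the treated-group measurement divided by the control-group measurement (T/C).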

[1] = dose: 50.0 mg/kg/injection, schedule: Q01DX009 (ip), vehicle: saline
[2] = dose: 100.0 mg/kg/injection, schedule: Q01DX009 (ip), vehicle: saline
[3] = dose: 200.0 mg/kg/injection, schedule: Q01DX009 (ip), vehicle: saline

Structure (SMILES): CC1OC(=O)C(C(C)C)NC(=O)C(C(C)C)OC(=O)C(C(C)C)NC(=O)C(C)OC(=O)C(C(C)C)NC(=O)C(C(C)C)OC(=O)C(C(C)C)NC(=O)C(C)OC(=O)C(C(C)C)NC(=O)C(C(C)C)OC(=O)C(C(C)C)NC1=O (stereo not given)
- T/C (dose: 5.0 mg/kg/injection, schedule: Q01DX009 (ip), vehicle: Klucel (hydroxypropylcellulose) (HPC)): 130 % of control
- T/C (dose: 6.5 mg/kg/injection, schedule: Q01DX009 (ip), vehicle: saline): 146 % of control [5 of 6 alive]
- T/C (dose: 10.0 mg/kg/injection, schedule: Q01DX009 (ip), vehicle: Klucel (hydroxypropylcellulose) (HPC)): 126 % of control
- survivor count (dose: 50.0 mg/kg/injection, schedule: Q04DX003 (ip), vehicle: Klucel (hydroxypropylcellulose) (HPC)): 6 of 7
- survivor count (dose: 75.0 mg/kg/injection, schedule: Q04DX003 (ip), vehicle: Klucel (hydroxypropylcellulose) (HPC)): 4 of 7

Structure (SMILES): CCC(C(O)c1cccs1)C(O)(C(F)(F)F)C(F)(F)F (stereo not given)
- T/C (dose: 400.0 mg/kg/injection, schedule: Q04DX003 (ip), vehicle: saline with Tween-80): 130 % of control

Structure (SMILES): CNC(=O)c1ccc(NC(=O)Nc2cccc(C3=NCCN3)c2)cc1NC(=O)Nc1cccc(C2=NCCN2)c1
- T/C (dose: 9.0 mg/kg/injection, schedule: Q01DX009 (ip), vehicle: saline with Tween-80, evaluated on day 29): 137 % of control
- T/C (dose: 9.0 mg/kg/injection, schedule: Q01DX009 (ip), vehicle: saline with Tween-80, evaluated on day 30): 125 % of control
- T/C (dose: 10.0 mg/kg/injection, schedule: Q01DX009 (ip), vehicle: saline with Tween-80): 131 % of control
- T/C (dose: 13.0 mg/kg/injection, schedule: Q01DX009 (ip), vehicle: saline with Tween-80, evaluated on day 29): 141 % of control
- T/C (dose: 13.0 mg/kg/injection, schedule: Q01DX009 (ip), vehicle: saline with Tween-80, evaluated on day 30): 129 % of control
- T/C (dose: 20.0 mg/kg/injection, schedule: Q01DX009 (ip), vehicle: saline with Tween-80): 137 % of control
- survivor count (dose: 30.0 mg/kg/injection, schedule: Q01DX009 (ip), vehicle: saline with Tween-80): 6 of 6
- survivor count (dose: 40.0 mg/kg/injection, schedule: Q01DX009 (ip), vehicle: saline with Tween-80): 3 of 6

Structure (SMILES): CSc1ncnc2c1ncn2C1OC(CO)C(O)C1O (stereo not given)
- T/C (dose: 16.0 mg/kg/injection, schedule: Q01DX010 (ip), vehicle: saline): 136 % of control

Structure (SMILES): CC1(C)N=C(N)N=C(N)N1c1ccccc1
- survivor count (dose: 75.0 mg/kg/injection, schedule: Q01DX009 (ip), vehicle: saline): 1 of 6
- survivor count (dose: 150.0 mg/kg/injection, schedule: Q01DX009 (ip), vehicle: saline): 0 of 6
- survivor count (dose: 300.0 mg/kg/injection, schedule: Q01DX009 (ip), vehicle: saline): 0 of 6

Structure (SMILES): NCC(=O)NC(CCCCNC(=O)OCc1ccccc1)C(=O)O (stereo not given) (H-Gly-[ξK](Cbz)-OH)
- survivor count (dose: 50.0 mg/kg/injection, schedule: Q01DX005 (ip), vehicle: saline with Tween-80): 0 of 5

Structure (SMILES): COC1(OC)C2CCC1C(Cl)=C2Cl
- survivor count (dose: 12.5 mg/kg/injection, schedule: Q01DX009 (ip), vehicle: saline): 6 of 6

Structure (SMILES): O=C([CH-]C(=O)C(F)(F)F)c1ccccc1.O=C([CH-]C(=O)C(F)(F)F)c1ccccc1.O=C([CH-]C(=O)C(F)(F)F)c1ccccc1.O=C([CH-]C(=O)C(F)(F)F)c1ccccc1.[Eu+3].c1ccncc1
- T/C (dose: 50.0 mg/kg/injection, schedule: Q01DX009 (ip), vehicle: Klucel (hydroxypropylcellulose) (HPC)): 128 % of control
- T/C (dose: 200.0 mg/kg/injection, schedule: Q01DX009 (ip), vehicle: Klucel (hydroxypropylcellulose) (HPC)): 136 % of control

Structure (SMILES): CC#CC(=O)SCCNC(=O)CC
- survivor count (dose: 100.0 mg/kg/injection, schedule: Q04DX003 (ip), vehicle: saline with Tween-80): 5 of 6
- survivor count (dose: 200.0 mg/kg/injection, schedule: Q04DX003 (ip), vehicle: saline with Tween-80): 1 of 6

Structure (SMILES): O=[N+]([O-])c1ccc(S(=O)c2ccc([N+](=O)[O-])cc2)cc1
- survivor count (dose: 400.0 mg/kg/injection, schedule: Q01DX009 (ip), vehicle: Klucel (hydroxypropylcellulose) (HPC)): 5 of 6

Structure (SMILES): COc1cc(C=Nc2cc(Cl)cc(Cl)c2)ccc1N(CCCl)CCCl
- survivor count (dose: 50.0 mg/kg/injection, schedule: Q01DX009 (ip), vehicle: saline with Tween-80): 6 of 6
- survivor count (dose: 100.0 mg/kg/injection, schedule: Q01DX009 (ip), vehicle: saline with Tween-80): 6 of 6
- survivor count (dose: 200.0 mg/kg/injection, schedule: Q01DX009 (ip), vehicle: saline with Tween-80): 4 of 6

Structure (SMILES): O=C(Cn1ccc(=O)[nH]c1=O)c1ccc([N+](=O)[O-])o1
- survivor count [1]: 3 of 6
- survivor count [2]: 0 of 6
- survivor count (dose: 100.0 mg/kg/injection, schedule: Q04DX003 (ip), vehicle: saline): 1 of 6
- survivor count [3]: 0 of 6

Structure (SMILES): CC1(C)CO[Se](=O)OC1
- survivor count [1]: 0 of 6
- survivor count [2]: 0 of 6
- survivor count [3]: 0 of 6
